Here are results for 16 compounds from PubChem BioAssay AID328 (DTP/NCI, 2004).

This assay deals with BDF1 mice, P388 leukemia ip, median survival T/C. As to the kind of experiment: NCI In Vivo Anticancer Drug Screen. Data for tumor model P388 Leukemia (intraperitoneal) in B6D2F1 (BDF1) mice. As to conditions: T/C endpoint: median survival time, higher T/C = longer survival. The essentials:
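T/C = treated-group survival ÷ vehicle-control survival; tumour transplanted into mice before dosing.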

Where [1] appears, read: dose: 100.0 mg/kg/injection, schedule: Q04DX003 (ip), vehicle: water.
The mark [2] stands for this setting: dose: 400.0 mg/kg/injection, schedule: Q04DX003 (ip), vehicle: saline with Tween-80.
[3] abbreviates: dose: 200.0 mg/kg/injection, schedule: Q04DX003 (ip), vehicle: water.
The mark [4] stands for this setting: dose: 400.0 mg/kg/injection, schedule: Q04DX003 (ip), vehicle: saline.
[5] abbreviates: dose: 200.0 mg/kg/injection, schedule: Q01DX009 (ip), vehicle: saline.
The mark [6] stands for this setting: dose: 100.0 mg/kg/injection, schedule: Q01DX009 (ip), vehicle: saline with Tween-80.

The list shows only some results of the screen, not a fair sample: it is rich in T/C values a quarter to a half above the control, in often repeated tests (any T/C) and in doses without a T/C. Other doses and runs of a compound stand elsewhere. T/C gives the treated animals as a percentage of the vehicle group. Some entries give survivors of the animals treated and no T/C: the source files T/C as zero there, which appears to mark a toxic dose or a test without result, not a measured value. Some survivor counts are full or nearly so, which does not show that the dose was tolerated: the source hardly ever lists a survival T/C far under the control, and the zero likely stands for such cases as well. Survivors were counted at the toxicity check, usually on the fifth day, unless a day is given; later deaths do not show. Schedule codes are those of the source, read here as Q, the interval in days (D) or hours (H), X, the number of doses. Some molecules as drawn cover several salts, stereoisomers or complexes of the source; a dose is that of the sample tested. Some entries were tested several times; their values stand side by side, smallest first. Where survival is the endpoint, the PubChem record calls one and a half times the control and up active, and a quarter to a half above the control has no call in these data; cut-offs in other NCI protocols can differ. Some T/C values are followed by the survivors on the day toxicity was checked, most often the fifth; where none is given, no animal had died by that day.

For the compound `CCOC(=O)CN1C(=O)S/C(=C/c2ccc([N+](=O)[O-])o2)C1=O`, the T/C (dose: 400.0 mg/kg/injection, schedule: Q04DX002 (ip), vehicle: saline with Tween-80) is 131 % of control [5 of 6 alive].

Consider `O=C1C(=O)c2ccccc2C(O)=C1CC=C(Cl)Cl`, for which the survivor count runs as follows: (dose: 6.2 mg/kg/injection, schedule: Q01DX009 (ip), vehicle: water) 10 of 10; (dose: 12.5 mg/kg/injection, schedule: Q01DX009 (ip), vehicle: water) 10 of 10; (dose: 50.0 mg/kg/injection, schedule: Q01DX009 (ip), vehicle: water) 10 of 10; (dose: 75.0 mg/kg/injection, schedule: Q01DX009 (ip), vehicle: water) 6 of 10; (dose: 100.0 mg/kg/injection, schedule: Q01DX001 (ip), vehicle: water) 4 of 10; (dose: 100.0 mg/kg/injection, schedule: Q01DX009 (oral), vehicle: water) 10 of 10. In addition, the survivor count runs as follows: (dose: 100.0 mg/kg/injection, schedule: Q01DX010 (ip), vehicle: saline) 1 of 6; under setting [1], 0 of 10; (dose: 200.0 mg/kg/injection, schedule: Q01DX009 (oral), vehicle: water) 3 of 6 and 10 of 10; (dose: 200.0 mg/kg/injection, schedule: Q01DX010 (oral), vehicle: saline with Tween-80) 4 of 6; (dose: 400.0 mg/kg/injection, schedule: Q01DX001 (oral), vehicle: water) 1 of 10; (dose: 400.0 mg/kg/injection, schedule: Q01DX010 (oral), vehicle: saline with Tween-80) 1 of 6.

Consider `Cc1ccccc1-c1nc2cc(Cl)ccc2c(=O)o1`, for which the survivor count (dose: 200.0 mg/kg/injection, schedule: Q04DX003 (ip), vehicle: saline with Tween-80) was 3 of 6 and the survivor count under setting [2] is recorded as 0 of 6.

Regarding `CC(C(=O)O)N(CC(=O)O)CC(=O)O.[Co+2].[NH-]CC(=O)O` (stereo not given), the survivor count was 3 of 6 (dose: 100.0 mg/kg/injection, schedule: Q01DX009 (ip), vehicle: water); 0 of 6 (dose: 200.0 mg/kg/injection, schedule: Q01DX009 (ip), vehicle: water); 5 of 6 under setting [3]; 3 of 6 (dose: 400.0 mg/kg/injection, schedule: Q04DX003 (ip), vehicle: water).

With `Cc1nc(C(=O)O)c(C)c(=O)[nH]1`, under “dose: 12.5 mg/kg/injection, schedule: Q04DX003 (ip), vehicle: water”, the T/C was 131 % of control. Also, the survivor count reads like this: (dose: 25.0 mg/kg/injection, schedule: Q04DX003 (ip), vehicle: water) 3 of 6; (dose: 50.0 mg/kg/injection, schedule: Q04DX003 (ip), vehicle: water) 2 of 6; under setting [1], 0 of 6; under setting [3], 0 of 6.

Take `O=C1C=C(C2OC(CO)C(O)C2O)C(=O)N1` (stereo not given): the T/C was 130 % of control (dose: 1.0 mg/kg/injection, schedule: Q01DX010 (ip), vehicle: saline); 130 % of control (dose: 1.5 mg/kg/injection, schedule: Q01DX001 (ip), vehicle: saline); 145 and 147 % of control (dose: 2.0 mg/kg/injection, schedule: Q01DX010 (ip), vehicle: saline). Moreover, the survivor count was 3 of 6 and 5 of 6 (dose: 16.0 mg/kg/injection, schedule: Q01DX010 (ip), vehicle: saline); 0 of 6 (dose: 25.0 mg/kg/injection, schedule: Q01DX001 (ip), vehicle: saline); 0 of 6 (dose: 32.0 mg/kg/injection, schedule: Q01DX010 (ip), vehicle: saline); 0 of 6 (dose: 50.0 mg/kg/injection, schedule: Q01DX001 (ip), vehicle: saline); 0 of 6 (dose: 100.0 mg/kg/injection, schedule: Q01DX001 (ip), vehicle: saline); 0 of 6 (dose: 200.0 mg/kg/injection, schedule: Q01DX001 (ip), vehicle: saline).

In the case of `OCCCN1CCC2(CC1)SSC1(CCN(CCCO)CC1)S2`, the survivor count under setting [4] is on record as 0 of 6.

With `Nc1nc2ccccc2[nH]1`, under setting [5], the survivor count was 0 of 6.

As to `c1cc(OCC2CO2)ccc1OCC1CO1` (stereo not given), the T/C reads like this: (dose: 118.0 mg/kg/injection, schedule: Q04DX003 (ip), vehicle: saline with Tween-80) 142 % of control; (dose: 264.0 mg/kg/injection, schedule: Q04DX003 (ip), vehicle: saline with Tween-80) 145 and 146 % of control; under setting [2], 136 % of control [5 of 6 alive].

On to `CCC(C)P(=O)(N1CC1C)N1CC1C` (stereo not given), for which the survivor count reads like this: (dose: 100.0 mg/kg/injection, schedule: Q04DX003 (ip), vehicle: saline) 6 of 6; (dose: 200.0 mg/kg/injection, schedule: Q04DX003 (ip), vehicle: saline) 0 of 6; under setting [4], 0 of 6.

On to `Cc1c2ccncc2c(C)c2c1[nH]c1ccccc12`, for which the T/C (dose: 2.5 mg/kg/injection, schedule: Q01DX010 (ip), vehicle: saline) is 127 % of control; the T/C (dose: 5.0 mg/kg/injection, schedule: Q01DX010 (ip), vehicle: saline) is 145 % of control; the T/C (dose: 13.0 mg/kg/injection, schedule: Q04DX003 (ip), vehicle: water) was 145 % of control; the T/C (dose: 66.7 mg/kg/injection, schedule: Q04DX003 (ip), vehicle: clinical formulation) is 140 % of control. The survivor count is, setting by setting: (dose: 30.0 mg/kg/injection, schedule: Q01DX009 (ip), vehicle: water) 10 of 10; (dose: 60.0 mg/kg/injection, schedule: Q01DX009 (ip), vehicle: water) 10 of 10; (dose: 80.0 mg/kg/injection, schedule: Q01DX010 (ip), vehicle: saline) 6 of 6; under setting [1], 8 of 8; (dose: 120.0 mg/kg/injection, schedule: Q01DX009 (ip), vehicle: water) 10 of 10; (dose: 160.0 mg/kg/injection, schedule: Q01DX010 (ip), vehicle: saline) 6 of 6.

Regarding `C=CC[n+]1ccccc1C(c1ccccc1)c1ccccc1`, the survivor count reads like this: (dose: 25.0 mg/kg/injection, schedule: Q01DX009 (ip), vehicle: saline with Tween-80) 3 of 6; (dose: 25.0 mg/kg/injection, schedule: Q04DX003 (ip), vehicle: saline with Tween-80) 6 of 6; (dose: 50.0 mg/kg/injection, schedule: Q04DX003 (ip), vehicle: saline with Tween-80) 0 of 6.

For the compound `CN(C)Cc1ccc([N+](=O)[O-])cc1`, the survivor count runs as follows: (dose: 100.0 mg/kg/injection, schedule: Q01DX009 (ip), vehicle: saline) 2 of 6; under setting [5], 0 of 6; under setting [4], 0 of 6.

Consider `Cn1ncc2c(NCCc3ccccc3)ncnc21`, for which, under setting [6], the survivor count was 3 of 6.

For `CC(=O)N1CCc2nc3ccccc3cc21`, the T/C (dose: 37.5 mg/kg/injection, schedule: Q01DX009 (ip), vehicle: saline) was 130 % of control and the T/C (dose: 75.0 mg/kg/injection, schedule: Q01DX009 (ip), vehicle: saline) is 125 % of control. In addition, the survivor count (dose: 150.0 mg/kg/injection, schedule: Q01DX009 (ip), vehicle: saline) is 5 of 6.

As for `CCOC1=Cc2c(oc3c(C(C)(C)C)cc(OCC)cc23)OC(C(C)(C)C)=C1`, the T/C (dose: 12.5 mg/kg/injection, schedule: Q01DX009 (ip), vehicle: saline with Tween-80) is 142 % of control. Further, the survivor count (dose: 50.0 mg/kg/injection, schedule: Q01DX009 (ip), vehicle: saline with Tween-80) was 5 of 6; the survivor count under setting [6] is given as 1 of 6; the survivor count (dose: 200.0 mg/kg/injection, schedule: Q01DX009 (ip), vehicle: saline with Tween-80) is reported as 0 of 6.
